The other results are listed elsewhere or left out. Repeats are few or missing, and single values can be far off.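 The apoptosis fraction was the count of cleaved-PARP antibody-stained nuclei relative to all DNA-stained nuclei, imaged in 1,536-well plates. Screening doses were set so most cells survived, and baseline and induced cleaved-PARP levels vary greatly across cell lines.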
Each compound was assayed on A101D (assay: cleaved PARP positive nuclei fraction relative to DMSO control; melanoma cells; higher = more apoptosis). Conditions: library dose: low library concentration; 72 h.

SMILES | cleaved PARP positive nuclei fraction [%]
COc1ccc(-c2ccc3c(N4CCOCC4)nc(N4C[C@@H](C)O[C@@H](C)C4)nc3n2)cc1CO + CCCCCCCCCCCC1=C(O)C(=O)C=C(O)C1=O [Embelin] (first compound 0.02 µM, partner dose 1.2 µM) | 74.1
Cn1cc(/C=C2\C(=O)Nc3cccnc32)c2ccccc21 + CCCCCCCCCCCC1=C(O)C(=O)C=C(O)C1=O [Embelin] (first compound 0.4 µM, partner dose 1.2 µM) | 111
NCC(=O)Nc1ccc(-n2nc(C(F)(F)F)cc2-c2ccc3c(ccc4ccccc43)c2)cc1 + COc1ccc(-c2ccc3c(N4CCOCC4)nc(N4C[C@@H](C)O[C@@H](C)C4)nc3n2)cc1CO [KU0063794] (first compound 1 µM, partner dose 0.02 µM) | 69.8
CCN(CC)CCCCNc1ncc2cc(-c3cc(OC)cc(OC)c3)c(NC(=O)NC(C)(C)C)nc2n1 + Oc1nc(-c2ccc(C(F)(F)F)cc2)nc2c1CSCC2 [XAV939] (first compound 0.1 µM, partner dose 2 µM) | 52.4
O=C(O)c1ccc(-c2c[nH]c3ncc(-c4ccccc4)cc23)cc1C1CCCC1 + O=c1cc(-c2cccc3c2Sc2ccccc2S3)oc(N2CCOCC2)c1 [KU55933] (first compound 0.16 µM, partner dose 1 µM) | 89.9
CCN(CC)CCCCNc1ncc2cc(-c3cc(OC)cc(OC)c3)c(NC(=O)NC(C)(C)C)nc2n1 + O=S(=O)(c1ccccc1)N(CC(F)(F)F)c1ccc(C(O)(C(F)(F)F)C(F)(F)F)cc1 [T0901317] (first compound 0.1 µM, partner dose 1.4 µM) | 59.8
COc1ccc2c(c1)CCC1C2CCC2(C)C(NCCCCCCN3C(=O)C=CC3=O)CCC12 (stereo not given) + COc1ccc(-c2ccc3c(N4CCOCC4)nc(N4C[C@@H](C)O[C@@H](C)C4)nc3n2)cc1CO [KU0063794] (first compound 0.4 µM, partner dose 0.02 µM) | 42.7
COc1cc2c(Oc3ccc4[nH]c(C)cc4c3F)ncnc2cc1OCCCN1CCCC1 [cediranib] + Oc1nc(-c2ccc(C(F)(F)F)cc2)nc2c1CSCC2 [XAV939] (first compound 0.4 µM, partner dose 2 µM) | 49.6
COc1ccc(-c2ccc3c(N4CCOCC4)nc(N4C[C@@H](C)O[C@@H](C)C4)nc3n2)cc1CO + COc1ccc(COc2ccc(Cc3cnc(N)nc3N)cc2OC)cc1 [GW2580] (first compound 0.02 µM, partner dose 1 µM) | 114
O=C(Nc1ccccc1)c1cc([N+](=O)[O-])ccc1Cl + c1cc(-c2cnn3cc(-c4ccc(OCCN5CCCCC5)cc4)cnc23)ccn1 [Dorsomorphin] (first compound 2 µM, partner dose 0.4 µM) | 172
NCC(=O)Nc1ccc(-n2nc(C(F)(F)F)cc2-c2ccc3c(ccc4ccccc43)c2)cc1 + O=c1cc(-c2cccc3c2Sc2ccccc2S3)oc(N2CCOCC2)c1 [KU55933] (first compound 1 µM, partner dose 1 µM) | 90.6
COC(=O)c1sccc1S(=O)(=O)Nc1ccc(Nc2ccccc2)cc1OC + COc1ccc(COc2ccc(Cc3cnc(N)nc3N)cc2OC)cc1 [GW2580] (first compound 1 µM, partner dose 1 µM) | 97.9
NCC(=O)Nc1ccc(-n2nc(C(F)(F)F)cc2-c2ccc3c(ccc4ccccc43)c2)cc1 + Oc1nc(-c2ccc(C(F)(F)F)cc2)nc2c1CSCC2 [XAV939] (first compound 1 µM, partner dose 2 µM) | 79
NCC(=O)Nc1ccc(-n2nc(C(F)(F)F)cc2-c2ccc3c(ccc4ccccc43)c2)cc1 + N#Cc1c(O)c2c(-c3ccc(-c4ccccc4O)cc3)csc2[nH]c1=O [A769662] (first compound 1 µM, partner dose 2 µM) | 113
CCc1ccc(CCOc2ccc(CC3SC(=O)NC3=O)cc2)nc1 (stereo not given) [pioglitazone] + COc1ccc2c(c1)CCC1C2CCC2(C)C(NCCCCCCN3C(=O)C=CC3=O)CCC12 [U73122] (first compound 2 µM, partner dose 0.4 µM) | 64.4
COc1cc(N2CCC(N3CCN(C)CC3)CC2)ccc1Nc1ncc(Cl)c(Nc2ccccc2S(=O)(=O)C(C)C)n1 + CCCCCCCCCCCC1=C(O)C(=O)C=C(O)C1=O [Embelin] (first compound 0.08 µM, partner dose 1.2 µM) | 69
N#Cc1c(O)c2c(-c3ccc(-c4ccccc4O)cc3)csc2[nH]c1=O + COc1ccc(-c2ccc3c(N4CCOCC4)nc(N4C[C@@H](C)O[C@@H](C)C4)nc3n2)cc1CO [KU0063794] (first compound 2 µM, partner dose 0.02 µM) | 35.5
NCC(=O)Nc1ccc(-n2nc(C(F)(F)F)cc2-c2ccc3c(ccc4ccccc43)c2)cc1 + O=S(=O)(c1ccccc1)N(CC(F)(F)F)c1ccc(C(O)(C(F)(F)F)C(F)(F)F)cc1 [T0901317] (first compound 1 µM, partner dose 1.4 µM) | 84.7
O=C1NC(=O)/C(=C/c2ccc(-c3ccc(F)cc3O)o2)S1 + CC(C)CCN1c2nc(Nc3cc(F)c(O)c(F)c3)ncc2N(C)C(=O)C1C [BID1870] (first compound 1 µM, partner dose 0.2 µM) | 180
NCC(=O)Nc1ccc(-n2nc(C(F)(F)F)cc2-c2ccc3c(ccc4ccccc43)c2)cc1 + O=C(Nc1ccccc1)c1cc([N+](=O)[O-])ccc1Cl [GW9662] (first compound 1 µM, partner dose 2 µM) | 108
O=S(=O)(c1ccccc1)N(CC(F)(F)F)c1ccc(C(O)(C(F)(F)F)C(F)(F)F)cc1 + c1cc(-c2cnn3cc(-c4ccc(OCCN5CCCCC5)cc4)cnc23)ccn1 [Dorsomorphin] (first compound 1.4 µM, partner dose 0.4 µM) | 143
COc1ccc(COc2ccc(Cc3cnc(N)nc3N)cc2OC)cc1 + Cn1cc(/C=C2\C(=O)Nc3cccnc32)c2ccccc21 [GW441756] (first compound 1 µM, partner dose 0.4 µM) | 105
Oc1cc(-c2nc(-c3ccccc3)[nH]c2-c2ccncc2)ccc1Cl + c1cc(-c2cnn3cc(-c4ccc(OCCN5CCCCC5)cc4)cnc23)ccn1 [Dorsomorphin] (first compound 0.2 µM, partner dose 0.4 µM) | 220
COc1ccc2c(c1)CCC1C2CCC2(C)C(NCCCCCCN3C(=O)C=CC3=O)CCC12 (stereo not given) + CC(C)CCN1c2nc(Nc3cc(F)c(O)c(F)c3)ncc2N(C)C(=O)C1C [BID1870] (first compound 0.4 µM, partner dose 0.2 µM) | 127
O=C1NC(=O)/C(=C/c2ccc(-c3ccc(F)cc3O)o2)S1 + c1cc(-c2cnn3cc(-c4ccc(OCCN5CCCCC5)cc4)cnc23)ccn1 [Dorsomorphin] (first compound 1 µM, partner dose 0.4 µM) | 205
O=C(O)C(=O)Nc1sc2c(c1C(=O)O)CCNC2 + Oc1nc(-c2ccc(C(F)(F)F)cc2)nc2c1CSCC2 [XAV939] (first compound 1.66667 µM, partner dose 2 µM) | 39.1
Oc1cc(-c2nc(-c3ccccc3)[nH]c2-c2ccncc2)ccc1Cl + Cc1cc([N+](=O)[O-])ccc1NS(=O)(=O)c1cc(Cl)ccc1Cl [FH535] (first compound 0.2 µM, partner dose 1 µM) | 121
CN(C)S(=O)(=O)c1ccc2c(c1)/C(=C/c1cc3c([nH]1)CCCC3)C(=O)N2 + O=S(=O)(c1ccccc1)N(CC(F)(F)F)c1ccc(C(O)(C(F)(F)F)C(F)(F)F)cc1 [T0901317] (first compound 0.4 µM, partner dose 1.4 µM) | 66.2
N#Cc1c(O)c2c(-c3ccc(-c4ccccc4O)cc3)csc2[nH]c1=O + O=C(O)C(=O)Nc1sc2c(c1C(=O)O)CCNC2 [TCS401] (first compound 2 µM, partner dose 1.66667 µM) | 108
O=C1NC(=O)/C(=C/c2ccc(-c3ccc(F)cc3O)o2)S1 + Oc1nc(-c2ccc(C(F)(F)F)cc2)nc2c1CSCC2 [XAV939] (first compound 1 µM, partner dose 2 µM) | 86.1

Reprinted at random: two records from the list, in no set order.
SMILES | cleaved PARP positive nuclei fraction [%]
CN(C)S(=O)(=O)c1ccc2c(c1)/C(=C/c1cc3c([nH]1)CCCC3)C(=O)N2 + O=S(=O)(c1ccccc1)N(CC(F)(F)F)c1ccc(C(O)(C(F)(F)F)C(F)(F)F)cc1 [T0901317] (first compound 0.4 µM, partner dose 1.4 µM) | 66.2
O=C(Nc1ccccc1)c1cc([N+](=O)[O-])ccc1Cl + c1cc(-c2cnn3cc(-c4ccc(OCCN5CCCCC5)cc4)cnc23)ccn1 [Dorsomorphin] (first compound 2 µM, partner dose 0.4 µM) | 172
